## Results of single-concentration screens

Chains of the proteins cited; added tags and fusions are not shown. Residues count along the entry.
UniProt Q4DA54, 1-478: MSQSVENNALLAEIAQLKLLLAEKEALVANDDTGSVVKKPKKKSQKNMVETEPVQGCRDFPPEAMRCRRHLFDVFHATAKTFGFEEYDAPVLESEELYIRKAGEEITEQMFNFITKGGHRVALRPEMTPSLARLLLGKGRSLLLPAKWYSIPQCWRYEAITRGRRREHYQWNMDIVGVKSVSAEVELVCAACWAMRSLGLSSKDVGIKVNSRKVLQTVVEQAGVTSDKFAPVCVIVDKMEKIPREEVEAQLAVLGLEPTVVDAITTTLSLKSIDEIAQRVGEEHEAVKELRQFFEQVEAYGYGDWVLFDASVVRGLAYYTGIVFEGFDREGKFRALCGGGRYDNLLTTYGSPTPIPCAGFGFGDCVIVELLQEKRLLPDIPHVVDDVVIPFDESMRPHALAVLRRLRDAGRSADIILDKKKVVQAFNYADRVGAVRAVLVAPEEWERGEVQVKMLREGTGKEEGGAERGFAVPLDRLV

From ChEMBL document CHEMBL3988442, “University of Dundee, Small-Polar-MMV Screening Library” (2021).

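Enzyme assay of histidyl-tRNA synthetase; the read-out is not stated. Target: Histidine-tRNA ligase, Trypanosoma cruzi CL Brener (UniProt Q4DA54). Tested at 30 µM. Higher reads as stronger inhibition (inferred: compounds with an IC50 in retests scored well above the rest). Size under these conditions: about 69,000 compounds, about 31 of them at 50% or above in at least one test.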

Values are the deposited “Percent Effect”, in %. How 0% and 100% were set is not recorded. Most values in the screen are low, and negative values occur. Compounds were drawn at random from those tested, without regard to their results.

O=C(NCC1CCCCC1)N1C[C@@H]2C[C@H]1CN2 gave 0.9709%.
CC(C)n1cnnc1CN(C)Cc1ccc(CN(C)S(C)(=O)=O)o1 gave 9.639%.
O=c1c(CN2CCSCC2)coc(O)c1CN1CCCC1 gave 9.901%.
CCN(CC(F)(F)F)C(=O)C1CCCN(Cc2cscn2)C1 (configuration not stated) gave 2.597%.
Fc1ccccc1CN1CCC[C@@H](Cn2nnc(-c3cccs3)n2)C1 gave 11.86%.
COCC(=O)NCc1cc(=O)n2c(n1)CN(CC1CCOC1)CCC2 (configuration not stated) gave -22.65%.
O=S(=O)(c1ccccc1)N1CCC2(CCCN2Cc2cccc(Cl)c2)C1 (configuration not stated) gave 9.816%.
Cc1nnc(NC(=O)NC2CCCc3c2cnn3CCO)s1 (configuration not stated) gave 3.333%.
Cc1ccc(-c2nc(CNC3CCc4ncnn4C3)no2)cc1 (configuration not stated) gave 5.202%.
CC(C)N(C(=O)CN(C)C1CCc2ccccc21)C(C)C (configuration not stated) gave 5.325%.
COCCN1C(=O)CC[C@@H]2[C@H]1CCN2Cc1cccc(C#N)c1 gave 3.922%.
CSc1ccc(CNC(=O)NCC(O)c2cccc(F)c2)cc1 (configuration not stated) gave 4.298%.
Cc1cc(N2CCC(NS(C)(=O)=O)CC2)nc(C(C)C)n1 gave 10.89%.
Cc1ccc(-c2cc(C(=O)NCCN3CCCS3(=O)=O)[nH]n2)cc1 gave 1.176%.
Cc1nn(C)c2ncc(CN3CCN(Cc4ccco4)CC3)cc12 gave 2.404%.
O=C(CN1CC(c2nc(C3CC3)no2)C1)N1CCOCC1 gave 3.636%.
Cc1cc(N(Cc2ccccc2F)C2CC2)n2nc(C(F)(F)F)nc2n1 gave 11.34%.
Cn1ccnc1CNCCNc1ncc(Cl)cc1Cl gave 3.867%.
Cc1nnc(C(NS(=O)(=O)c2cc(C)c(F)cc2F)C(C)C)[nH]1 (configuration not stated) gave 11.67%.
CC(C)N(CCNC(=O)c1n[nH]c2ccccc12)C(C)C gave 4.598%.
Cc1nn(C)c(Cl)c1CNCc1cccnc1N1CCN(C)CC1 gave 7.609%.
CNc1cncc(C2CCCN2S(=O)(=O)c2ccccc2F)n1 (configuration not stated) gave 4.478%.
Cc1cc(NC(=O)NC(C)CN2CCN(c3ccccc3)CC2)on1 (configuration not stated) gave 5.911%.
CC(=O)N1CCCC2(C1)CN(c1ncc(C)cn1)CCO2 (configuration not stated) gave 5.882%.
COc1ccccc1OC1CCN(c2nc(N)nc3[nH]cnc23)CC1 gave 5.435%.
O=C(NCc1nccn1CCc1ccccc1)NCC1CCC1 gave 3.509%.
Cc1nc(C(=O)N2CCOC(Cc3ccccc3)C2)co1 (configuration not stated) gave 2.308%.
Cc1nn(C)c2cnn(CC(=O)NCc3cccs3)c12 gave 0.8696%.
COCCN1CCCC2(CCN(c3cccc(C(F)(F)F)n3)C2)C1=O (configuration not stated) gave 4.433%.
Cc1nc(N)nc(C)c1CC(=O)N1CCC2(CC1)OCCCC2O (configuration not stated) gave 0.8696%.
CNc1nccc(C2CCCCN2Cc2cnn3cccnc23)n1 (configuration not stated) gave 10.34%.
Cc1nc(N2CCN(C)CC2)ncc1C(=O)N1C[C@@H](C)[C@@](C)(O)C1 gave -2.762%.
CN(C)c1ncnc2c1CCN(C(=O)CN1CCCCC1)C2 gave 8.046%.
COc1ccc(C(=O)N2CCC(Nc3ccc(C)nn3)CC2)c(F)c1 gave 1.88%.
COCCN1CCN(Cc2ccc(C(C)=O)cc2)[C@H]2CS(=O)(=O)C[C@H]21 gave 5.102%.
CS(=O)(=O)CCNC(=O)Nc1sc2ccccc2c1Cl gave 7.937%.
CN1CCN2CCN(Cc3ccccc3Cn3cccn3)CC2C1 (configuration not stated) gave 5.435%.
O=C(c1ccncc1)N1CCOC2(COCCN(c3cccnc3)C2)C1 (configuration not stated) gave -1.149%.
CN1C(=O)[C@H]2CC[C@@H]1CN(S(=O)(=O)c1ccc(Cl)cc1Cl)C2 gave 4%.
O=C1NCC2(CCCN(Cc3ccccc3F)C2)Oc2ccccc21 (configuration not stated) gave 5.946%.
CCCS(=O)(=O)NC1CCN(c2cccc(F)c2C#N)CC1 gave 3.659%.
O=C1[C@@H]2CN(Cc3cc4ccccc4o3)C[C@]2(C(=O)O)CN1CC1CC1 gave 1.087%.
COc1ccc(CCC(C)Nc2cccc(SC)c2)cc1 (configuration not stated) gave 7.035%.
Cc1ncccc1C(=O)Nc1cccc(C[S+](C)[O-])c1C (configuration not stated) gave 8.247%.
O=C1CCCN1CCc1noc(-c2ccc(Cl)cc2)n1 gave 3.191%.
c1cncc(N2CCCn3nnc(CN4CCOCC4)c3C2)c1 gave -0.5587%.
CC1CN(CC(=O)NC2CCCC2)CCN1c1ccc2nncn2n1 (configuration not stated) gave 2.29%.
CC(C)N(C)Cc1cnc2n1CCN(C(=O)Cc1ccccn1)C2 gave 3%.
O=C(NCc1cncc2c1CCN(C1CCOCC1)C2)c1ccno1 gave 6.145%.
CC(C)NC(=O)N1CCN(CC2CC2)c2ncccc2C1 gave 7.143%.
COC1CCN(S(=O)(=O)N2CCC3(CCCNC3=O)C2)CC1 (configuration not stated) gave 0%.
CN1CCN(c2ncnc3c2CCN(Cc2nccn2C)CC3)CC1 gave -3.681%.
CCN1CCN(C2CCN(Cc3nc(-c4ccoc4)no3)CC2)C1=O gave 5.344%.
Cc1ccc(N2CCC3(CC2)CCN(C2CCOCC2)CC3)nn1 gave 6.952%.